Measurements as given in the supplement of paper PMC10849652.
Some of the results follow. Residues, ends and D or L forms follow the SMILES beside them. *: point of attachment. Cbz = O=C(OCc1ccccc1)*

Amino acid sequences for entries named in this document (tags omitted). A change or cut given only in a name is not applied to a line headed by its entry.
UniProt Q15404: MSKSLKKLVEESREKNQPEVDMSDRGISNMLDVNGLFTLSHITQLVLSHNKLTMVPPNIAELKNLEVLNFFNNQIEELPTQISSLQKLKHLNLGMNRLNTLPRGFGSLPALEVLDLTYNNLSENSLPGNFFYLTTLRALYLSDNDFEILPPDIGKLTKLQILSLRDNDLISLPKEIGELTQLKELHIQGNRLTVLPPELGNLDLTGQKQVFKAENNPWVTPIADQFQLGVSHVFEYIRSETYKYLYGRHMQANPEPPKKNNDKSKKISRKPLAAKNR
UniProt Q96I15: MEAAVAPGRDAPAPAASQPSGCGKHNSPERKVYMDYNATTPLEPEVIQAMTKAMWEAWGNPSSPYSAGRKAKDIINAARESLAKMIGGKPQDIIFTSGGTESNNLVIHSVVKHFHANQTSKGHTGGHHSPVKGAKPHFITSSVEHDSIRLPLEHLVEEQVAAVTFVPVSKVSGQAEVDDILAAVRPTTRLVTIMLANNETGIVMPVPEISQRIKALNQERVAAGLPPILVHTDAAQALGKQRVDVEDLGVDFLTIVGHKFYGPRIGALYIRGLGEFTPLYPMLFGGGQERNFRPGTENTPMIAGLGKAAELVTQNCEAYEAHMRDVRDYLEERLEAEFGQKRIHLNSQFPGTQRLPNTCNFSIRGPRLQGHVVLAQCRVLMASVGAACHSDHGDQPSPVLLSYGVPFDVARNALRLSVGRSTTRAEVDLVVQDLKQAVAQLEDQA
UniProt Q96FV2: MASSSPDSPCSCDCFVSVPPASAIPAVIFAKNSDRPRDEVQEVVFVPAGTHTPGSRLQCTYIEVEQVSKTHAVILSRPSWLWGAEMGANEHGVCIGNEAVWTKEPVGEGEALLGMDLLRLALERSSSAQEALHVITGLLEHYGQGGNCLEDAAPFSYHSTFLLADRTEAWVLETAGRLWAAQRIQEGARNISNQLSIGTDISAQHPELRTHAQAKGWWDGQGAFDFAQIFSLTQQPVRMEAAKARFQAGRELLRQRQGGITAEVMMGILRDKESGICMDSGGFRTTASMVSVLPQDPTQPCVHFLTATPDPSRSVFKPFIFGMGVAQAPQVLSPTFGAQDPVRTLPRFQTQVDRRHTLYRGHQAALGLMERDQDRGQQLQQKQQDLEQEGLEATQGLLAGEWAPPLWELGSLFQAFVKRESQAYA
UniProt P31040: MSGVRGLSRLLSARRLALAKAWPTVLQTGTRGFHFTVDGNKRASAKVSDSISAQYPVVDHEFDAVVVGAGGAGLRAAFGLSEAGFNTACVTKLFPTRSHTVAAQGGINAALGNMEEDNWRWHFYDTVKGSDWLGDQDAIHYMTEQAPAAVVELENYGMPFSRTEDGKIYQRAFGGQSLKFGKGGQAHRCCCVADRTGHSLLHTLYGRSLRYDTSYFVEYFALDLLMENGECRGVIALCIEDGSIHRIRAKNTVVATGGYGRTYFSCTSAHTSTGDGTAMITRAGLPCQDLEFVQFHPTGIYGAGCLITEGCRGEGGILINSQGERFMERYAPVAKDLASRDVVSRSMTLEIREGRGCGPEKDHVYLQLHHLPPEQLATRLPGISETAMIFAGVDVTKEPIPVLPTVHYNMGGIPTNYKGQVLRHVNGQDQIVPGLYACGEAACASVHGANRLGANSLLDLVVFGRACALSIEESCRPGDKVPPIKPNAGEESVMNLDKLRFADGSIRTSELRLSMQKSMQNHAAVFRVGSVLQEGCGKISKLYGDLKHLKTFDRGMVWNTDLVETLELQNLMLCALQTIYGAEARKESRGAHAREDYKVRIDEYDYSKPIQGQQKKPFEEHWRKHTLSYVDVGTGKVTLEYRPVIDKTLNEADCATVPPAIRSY
UniProt Q9Y265, whole entry, looked up: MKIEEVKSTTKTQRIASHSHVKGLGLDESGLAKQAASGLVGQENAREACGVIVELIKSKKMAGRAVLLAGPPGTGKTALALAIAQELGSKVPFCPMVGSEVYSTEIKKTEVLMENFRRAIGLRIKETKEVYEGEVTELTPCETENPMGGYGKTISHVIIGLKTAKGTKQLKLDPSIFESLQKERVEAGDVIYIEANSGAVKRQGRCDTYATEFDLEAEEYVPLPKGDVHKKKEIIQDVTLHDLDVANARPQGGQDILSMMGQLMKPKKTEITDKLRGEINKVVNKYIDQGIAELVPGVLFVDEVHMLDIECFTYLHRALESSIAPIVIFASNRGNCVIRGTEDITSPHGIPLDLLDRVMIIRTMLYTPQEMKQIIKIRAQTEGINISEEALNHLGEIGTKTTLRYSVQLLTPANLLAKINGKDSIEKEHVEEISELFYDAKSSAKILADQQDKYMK
UniProt Q8WTV0: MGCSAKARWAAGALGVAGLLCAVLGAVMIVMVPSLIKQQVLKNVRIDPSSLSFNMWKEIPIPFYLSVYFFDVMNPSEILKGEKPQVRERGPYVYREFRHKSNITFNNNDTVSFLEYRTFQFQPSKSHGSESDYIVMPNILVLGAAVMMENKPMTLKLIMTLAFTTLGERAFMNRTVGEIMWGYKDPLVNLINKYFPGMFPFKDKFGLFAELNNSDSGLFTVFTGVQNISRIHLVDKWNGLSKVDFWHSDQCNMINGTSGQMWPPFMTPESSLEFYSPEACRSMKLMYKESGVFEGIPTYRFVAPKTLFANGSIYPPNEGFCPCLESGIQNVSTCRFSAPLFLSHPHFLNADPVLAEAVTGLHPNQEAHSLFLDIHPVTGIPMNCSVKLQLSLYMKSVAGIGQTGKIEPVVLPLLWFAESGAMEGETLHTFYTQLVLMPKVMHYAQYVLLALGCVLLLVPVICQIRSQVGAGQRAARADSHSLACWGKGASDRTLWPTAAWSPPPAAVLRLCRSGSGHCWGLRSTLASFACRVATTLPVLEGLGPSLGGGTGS
UniProt P82979: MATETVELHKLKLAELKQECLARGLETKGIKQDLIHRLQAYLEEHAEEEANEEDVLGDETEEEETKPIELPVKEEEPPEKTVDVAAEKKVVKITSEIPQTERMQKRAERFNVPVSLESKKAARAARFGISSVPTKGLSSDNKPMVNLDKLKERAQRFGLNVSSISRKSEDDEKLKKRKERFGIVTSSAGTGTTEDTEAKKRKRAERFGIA
UniProt Q6PCB5: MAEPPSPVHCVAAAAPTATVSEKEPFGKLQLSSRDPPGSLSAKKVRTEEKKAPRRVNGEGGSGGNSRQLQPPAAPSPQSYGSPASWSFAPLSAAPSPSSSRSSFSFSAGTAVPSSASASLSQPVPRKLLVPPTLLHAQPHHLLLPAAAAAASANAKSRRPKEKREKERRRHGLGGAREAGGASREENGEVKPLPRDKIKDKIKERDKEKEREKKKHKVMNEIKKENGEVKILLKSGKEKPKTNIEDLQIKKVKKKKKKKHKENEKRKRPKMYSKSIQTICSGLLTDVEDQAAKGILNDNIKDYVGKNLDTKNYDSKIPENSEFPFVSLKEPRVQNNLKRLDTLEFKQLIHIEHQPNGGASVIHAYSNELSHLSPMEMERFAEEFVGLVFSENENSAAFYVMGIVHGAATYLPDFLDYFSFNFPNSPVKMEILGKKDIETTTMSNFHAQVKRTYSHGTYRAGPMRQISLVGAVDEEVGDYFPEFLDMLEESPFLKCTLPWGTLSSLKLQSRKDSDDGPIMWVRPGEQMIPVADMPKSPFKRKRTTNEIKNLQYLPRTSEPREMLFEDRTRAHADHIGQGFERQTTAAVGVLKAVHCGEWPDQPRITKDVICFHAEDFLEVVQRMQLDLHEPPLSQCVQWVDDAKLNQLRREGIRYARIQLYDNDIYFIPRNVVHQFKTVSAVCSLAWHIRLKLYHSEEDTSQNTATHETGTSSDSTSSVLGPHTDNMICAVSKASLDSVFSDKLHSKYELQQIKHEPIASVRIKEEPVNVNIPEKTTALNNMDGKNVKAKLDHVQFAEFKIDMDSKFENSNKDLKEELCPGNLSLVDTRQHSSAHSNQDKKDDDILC
UniProt O75298: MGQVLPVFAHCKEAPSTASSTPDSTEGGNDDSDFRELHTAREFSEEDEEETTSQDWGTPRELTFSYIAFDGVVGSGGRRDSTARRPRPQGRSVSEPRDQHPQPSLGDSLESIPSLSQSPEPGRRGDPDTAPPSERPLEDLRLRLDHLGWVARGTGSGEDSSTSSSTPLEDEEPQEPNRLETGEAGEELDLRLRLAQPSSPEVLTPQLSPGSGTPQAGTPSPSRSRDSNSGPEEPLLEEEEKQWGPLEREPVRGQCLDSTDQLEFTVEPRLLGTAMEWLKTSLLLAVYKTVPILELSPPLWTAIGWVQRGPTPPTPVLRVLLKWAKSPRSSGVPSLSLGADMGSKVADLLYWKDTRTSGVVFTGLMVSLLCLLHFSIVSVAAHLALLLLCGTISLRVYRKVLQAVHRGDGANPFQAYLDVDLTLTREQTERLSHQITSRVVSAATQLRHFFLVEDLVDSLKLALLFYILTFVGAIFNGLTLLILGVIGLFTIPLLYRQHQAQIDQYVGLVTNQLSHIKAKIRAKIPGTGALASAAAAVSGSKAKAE
UniProt P67812: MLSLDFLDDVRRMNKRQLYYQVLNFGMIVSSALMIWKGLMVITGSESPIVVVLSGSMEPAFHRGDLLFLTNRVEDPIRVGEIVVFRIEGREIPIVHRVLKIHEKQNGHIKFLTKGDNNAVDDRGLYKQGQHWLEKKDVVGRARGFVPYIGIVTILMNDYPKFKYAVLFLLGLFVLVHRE
UniProt O75396: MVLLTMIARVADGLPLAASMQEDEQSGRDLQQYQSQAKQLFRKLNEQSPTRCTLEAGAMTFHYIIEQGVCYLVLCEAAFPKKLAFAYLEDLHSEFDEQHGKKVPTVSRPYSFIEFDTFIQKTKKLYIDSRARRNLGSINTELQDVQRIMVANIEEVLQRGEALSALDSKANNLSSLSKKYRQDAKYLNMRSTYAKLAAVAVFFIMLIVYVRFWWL
UniProt Q9Y512: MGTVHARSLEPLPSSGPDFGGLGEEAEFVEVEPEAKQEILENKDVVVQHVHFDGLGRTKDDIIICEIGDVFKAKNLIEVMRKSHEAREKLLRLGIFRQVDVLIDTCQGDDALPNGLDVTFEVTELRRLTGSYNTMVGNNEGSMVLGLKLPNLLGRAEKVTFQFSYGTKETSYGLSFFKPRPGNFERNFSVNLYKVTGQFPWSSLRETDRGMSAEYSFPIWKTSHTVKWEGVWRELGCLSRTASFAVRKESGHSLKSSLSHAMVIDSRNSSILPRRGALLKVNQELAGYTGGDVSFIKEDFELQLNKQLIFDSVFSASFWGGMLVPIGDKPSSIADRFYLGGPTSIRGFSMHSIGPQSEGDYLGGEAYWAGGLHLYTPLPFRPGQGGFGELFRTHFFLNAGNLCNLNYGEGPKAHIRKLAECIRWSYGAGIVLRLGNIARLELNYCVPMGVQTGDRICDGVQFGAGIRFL
UniProt O00442: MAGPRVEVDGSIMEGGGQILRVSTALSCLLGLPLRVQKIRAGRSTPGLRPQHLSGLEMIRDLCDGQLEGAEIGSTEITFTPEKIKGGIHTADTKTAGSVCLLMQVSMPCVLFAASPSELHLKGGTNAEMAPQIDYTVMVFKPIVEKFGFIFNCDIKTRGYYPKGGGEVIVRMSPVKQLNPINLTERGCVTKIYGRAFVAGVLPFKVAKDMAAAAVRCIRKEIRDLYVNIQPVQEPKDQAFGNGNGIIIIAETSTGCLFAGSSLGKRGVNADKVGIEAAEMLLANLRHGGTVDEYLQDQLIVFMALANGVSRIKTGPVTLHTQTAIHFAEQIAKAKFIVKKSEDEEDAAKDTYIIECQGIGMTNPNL
UniProt Q9Y3Z3: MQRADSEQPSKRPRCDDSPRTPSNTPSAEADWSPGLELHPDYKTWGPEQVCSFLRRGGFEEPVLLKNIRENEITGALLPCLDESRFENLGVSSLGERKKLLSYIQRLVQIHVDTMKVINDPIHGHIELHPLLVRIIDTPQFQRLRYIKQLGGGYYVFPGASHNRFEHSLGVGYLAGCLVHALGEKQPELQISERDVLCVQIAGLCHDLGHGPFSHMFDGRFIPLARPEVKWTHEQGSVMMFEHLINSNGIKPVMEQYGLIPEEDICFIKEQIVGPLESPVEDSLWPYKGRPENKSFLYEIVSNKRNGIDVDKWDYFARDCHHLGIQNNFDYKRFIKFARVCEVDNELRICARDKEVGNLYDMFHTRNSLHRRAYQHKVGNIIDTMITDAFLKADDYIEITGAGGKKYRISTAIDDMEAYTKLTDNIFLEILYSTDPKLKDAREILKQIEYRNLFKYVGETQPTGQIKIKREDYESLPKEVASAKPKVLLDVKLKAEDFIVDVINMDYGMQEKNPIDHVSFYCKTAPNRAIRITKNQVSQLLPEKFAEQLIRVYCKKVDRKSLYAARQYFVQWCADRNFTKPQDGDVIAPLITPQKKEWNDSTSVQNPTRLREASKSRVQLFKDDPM

Key:
Assay in all cases: log2 fold change, soluble protein after heating vs DMSO (PISA); higher = thermal stabilisation; K562 cells, 10 uM, 30 min; active = over 0.2 and 3.5 SD of the protein, either way, in both replicates (recomputed)
IRAK-1-4 Inhibitor I = compound: C1COCCN1CCN2C3=CC=CC=C3N=C2NC(=O)C4=CC(=CC=C4)[N+](=O)[O-] [IRAK-1-4 Inhibitor I]
Procedure, shortened: (§1)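 Quantification of soluble protein used TMTpro 16plex LC-MS/MS, with channel sums equalised. Samples were the supernatant after 21,000xg for 90 min of pooled aliquots from K562 cells (2×10^6 cells/mL) treated with 10 μM compound for 30 min, heated for 3 min over 48°C-58°C, and extracted in PBS with 0.5% NP-40 at 4°C. Values, from duplicates, describe thermal stability against control samples on a log2 fold-change scale.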

ibrutinib = compound: C=CC(=O)N1CCC[C@@H](n2nc(-c3ccc(Oc4ccccc4)cc3)c3c(N)ncnc32)C1 [ibrutinib]
Procedure, shortened: as §1

[1] = compound: CC(=O)c1cnc2ccc(-c3cc(Cl)c(O)c(Cl)c3)nc2c1N[C@H]1CC[C@H](CN(C)C)CC1
Procedure, shortened: as §1

ralimetinib = compound: CC(C)(C)Cn1c(N)nc2ccc(-c3[nH]c(C(C)(C)C)nc3-c3ccc(F)cc3)nc21 [ralimetinib]
Procedure, shortened: as §1

[2] = compound: CC(C)(O)CC(=O)NCCn1ccc2ncnc(Nc3ccc(Oc4cccc(C(F)(F)F)c4)c(Cl)c3)c21
Procedure, shortened: as §1

[3] = compound: CC(C)C1=C2N=C(C=C(N2N=C1)NCC3=CC=CC=C3)NCCCCCCN
Procedure, shortened: as §1

[4] = compound: CC(C)C[C@@H](C=O)NC(=O)[C@H](CC(C)C)NC(=O)[C@H](CC(C)C)NC(=O)OCc1ccccc1
Procedure, shortened: as §1

pinometostat = compound: CC(C)N(C[C@H]1O[C@@H](n2cnc3c(N)ncnc32)[C@H](O)[C@@H]1O)[C@H]1C[C@@H](CCc2nc3cc(C(C)(C)C)ccc3[nH]2)C1 [pinometostat]
Procedure, shortened: as §1

[5] = compound: CC1=C(C(CC(=O)N1)C2=CC=C(C=C2)C(F)(F)F)C(=O)NC3=C(C=C4C(=C3)C=NN4)F
Procedure, shortened: as §1

[6] = compound: CC1=C(C2=C(C=C1)C(=O)C3=CC=CC=C3N2CCCN)C
Procedure, shortened: as §1

[7] = compound: CC1=C(C=C(C=C1)NC(=O)C2=CC(=CC=C2)C(C)(C)C#N)NC3=CC4=C(C=C3)N=CN(C4=O)C
Procedure, shortened: as §1

[8] = compound: CC1=C(C=C(C=C1)NC(=O)C2=CC(=CC=C2)N(C)C)NC(=O)C3=CC=C(C=C3)O
Procedure, shortened: as §1

[9] = compound: CC1=CC=C(C=C1)SC2=C3C=C(SC3=CN=C2)C(=O)N
Procedure, shortened: as §1

[10] = compound: CC1=NC(=CC=C1)C2=C(N=C(N2)C(C)(C)C)C3=CC4=NC=CN=C4C=C3
Procedure, shortened: as §1

Nexturastat A = compound: CCCCN(Cc1ccc(C(=O)NO)cc1)C(=O)Nc1ccccc1 [Nexturastat A]
Procedure, shortened: as §1

vemurafenib = compound: CCCS(=O)(=O)Nc1ccc(F)c(C(=O)c2c[nH]c3ncc(-c4ccc(Cl)cc4)cc23)c1F [vemurafenib]
Procedure, shortened: as §1

[11] = compound: CCCS(=O)(=O)Nc1ccc(F)c(C(=O)c2c[nH]c3ncc(Cl)cc23)c1F
Procedure, shortened: as §1

[12] = compound: CCCc1cc(C)[nH]c(=O)c1CNC(=O)c1cc(-c2ccnc(N3CCN(C)CC3)c2)cc2c1cnn2C(C)C
Procedure, shortened: as §1

givinostat = compound: CCN(CC)Cc1ccc2cc(COC(=O)Nc3ccc(C(=O)NO)cc3)ccc2c1 [givinostat]
Procedure, shortened: as §1

barasertib = compound: CCN(CCCOc1ccc2c(Nc3cc(CC(=O)Nc4cccc(F)c4)[nH]n3)ncnc2c1)CCOP(=O)(O)O [barasertib]
Procedure, shortened: as §1

Measured: log2 fold change

RSU1 (UniProt Q15404)
inactive: IRAK-1-4 Inhibitor I 0.047 | ibrutinib 0.002 | [1] -0.021 | ralimetinib -0.045 | [2] 0.006 | [3] 0.04 | [4] -0.042 | pinometostat -0.031 | [5] -0.014 | [6] 0.021 | [7] -0.05 | [8] 0.004 | [9] 0 | [10] 0.011 | Nexturastat A -0.087 | vemurafenib 0.003 | [11] 0.001 | [12] 0.03 | givinostat -0.013 | barasertib 0.008

SCLY (UniProt Q96I15)
inactive: IRAK-1-4 Inhibitor I -0.004 | ibrutinib -0.002 | [1] -0.009 | ralimetinib -0.028 | [2] -0.047 | [3] 0.048 | [4] 0.034 | pinometostat -0.046 | [5] 0.025 | [6] -0.008 | [7] -0.009 | [8] 0.027 | [9] 0 | [10] -0.003 | Nexturastat A -0.054 | vemurafenib -0.002 | [11] 0.011 | [12] -0.025 | givinostat 0.016 | barasertib -0.015

RTN3 isoform 5 (UniProt O95197)
inactive: IRAK-1-4 Inhibitor I 0.02 | ibrutinib -0.363 | [1] -0.159 | ralimetinib -0.013 | [2] -0.055 | [3] 0.001 | [4] -0.062 | pinometostat 0.001 | [5] -0.084 | [6] 0.056 | [7] 0.109 | [8] -0.004 | [9] 0.227 | [10] -0.075 | Nexturastat A -0.344 | vemurafenib 0.092 | [11] 0.189 | [12] -0.067 | givinostat -0.064 | barasertib 0.038

SCRN2 (UniProt Q96FV2)
inactive: IRAK-1-4 Inhibitor I 0.04 | ibrutinib 0.011 | [1] 0.019 | ralimetinib 0.221 | [2] -0.064 | [3] -0.043 | [4] 0.009 | pinometostat -0.088 | [5] -0.034 | [6] -0.096 | [7] -0.065 | [8] -0.111 | [9] 0.1 | [10] -0.105 | Nexturastat A 0.067 | vemurafenib 0.006 | [11] -0.089 | [12] -0.098 | givinostat 0.044 | barasertib 0.032

SDHA (UniProt P31040)
inactive: IRAK-1-4 Inhibitor I 0.002 | ibrutinib 0.017 | [1] 0.031 | ralimetinib -0.032 | [2] -0.027 | [3] 0.058 | [4] 0 | pinometostat -0.06 | [5] 0.013 | [6] -0.019 | [7] 0.034 | [8] 0.031 | [9] 0.01 | [10] 0.054 | Nexturastat A -0.072 | vemurafenib 0.008 | [11] 0.011 | [12] 0.029 | givinostat -0.019 | barasertib -0.052

SDF4 (UniProt Q9BRK5)
inactive: IRAK-1-4 Inhibitor I 0.015 | ibrutinib 0.009 | [1] 0.052 | ralimetinib -0.084 | [2] -0.045 | [3] 0.03 | [4] 0.021 | pinometostat -0.003 | [5] -0.022 | [6] 0.009 | [7] -0.047 | [8] -0.005 | [9] 0.04 | [10] -0.003 | Nexturastat A -0.041 | vemurafenib 0.024 | [11] -0.032 | [12] 0.031 | givinostat 0.015 | barasertib 0.009

Looked up one by one from the list above (2):
SCLY (UniProt Q96I15)
inactive: IRAK-1-4 Inhibitor I -0.004 | ibrutinib -0.002 | [1] -0.009 | ralimetinib -0.028 | [2] -0.047 | [3] 0.048 | [4] 0.034 | pinometostat -0.046 | [5] 0.025 | [6] -0.008 | [7] -0.009 | [8] 0.027 | [9] 0 | [10] -0.003 | Nexturastat A -0.054 | vemurafenib -0.002 | [11] 0.011 | [12] -0.025 | givinostat 0.016 | barasertib -0.015

RSU1 (UniProt Q15404)
inactive: IRAK-1-4 Inhibitor I 0.047 | ibrutinib 0.002 | [1] -0.021 | ralimetinib -0.045 | [2] 0.006 | [3] 0.04 | [4] -0.042 | pinometostat -0.031 | [5] -0.014 | [6] 0.021 | [7] -0.05 | [8] 0.004 | [9] 0 | [10] 0.011 | Nexturastat A -0.087 | vemurafenib 0.003 | [11] 0.001 | [12] 0.03 | givinostat -0.013 | barasertib 0.008

(continued)

RUVBL1 (UniProt Q9Y265)
inactive: IRAK-1-4 Inhibitor I 0.031 | ibrutinib 0.025 | [1] 0.07 | ralimetinib -0.007 | [2] 0.035 | [3] 0.109 | [4] -0.005 | pinometostat -0.023 | [5] -0.02 | [6] -0.049 | [7] 0.035 | [8] -0.007 | [9] -0.047 | [10] -0.027 | Nexturastat A -0.01 | vemurafenib -0.008 | [11] -0.081 | [12] -0.018 | givinostat -0.006 | barasertib -0.034

SCARB1 isoform 2 (UniProt Q8WTV0)
inactive: IRAK-1-4 Inhibitor I 0.027 | ibrutinib 0.043 | [1] -0.007 | ralimetinib -0.076 | [2] -0.056 | [3] 0.01 | [4] -0.037 | pinometostat -0.049 | [5] -0.004 | [6] 0.046 | [7] 0.022 | [8] 0.032 | [9] 0.018 | [10] 0.026 | Nexturastat A -0.022 | vemurafenib 0.023 | [11] 0.015 | [12] -0.137 | givinostat -0.006 | barasertib -0.01

SARNP (UniProt P82979)
inactive: IRAK-1-4 Inhibitor I 0.057 | ibrutinib 0.055 | [1] 0.021 | ralimetinib -0.095 | [2] 0.076 | [3] 0.17 | [4] 0.14 | pinometostat 0 | [5] 0.035 | [6] -0.005 | [7] -0.039 | [8] 0.007 | [9] -0.071 | [10] -0.065 | Nexturastat A 0.019 | vemurafenib -0.077 | [11] -0.121 | [12] -0.06 | givinostat -0.04 | barasertib -0.056

RSBN1L (UniProt Q6PCB5)
inactive: IRAK-1-4 Inhibitor I -0.092 | ibrutinib 0.074 | [1] 0.062 | ralimetinib 0.14 | [2] 0.057 | [3] 0.043 | [4] 0.107 | pinometostat 0.235 | [5] 0.007 | [6] -0.207 | [7] -0.019 | [8] -0.036 | [9] -0.065 | [10] -0.193 | Nexturastat A 0.332 | vemurafenib -0.114 | [11] -0.067 | [12] 0.148 | givinostat -0.009 | barasertib -0.115

RTN2 (UniProt O75298)
inactive: IRAK-1-4 Inhibitor I 0.004 | ibrutinib 0.001 | [1] -0.059 | ralimetinib -0.07 | [2] 0.008 | [3] -0.258 | [4] -0.004 | pinometostat -0.001 | [5] -0.035 | [6] 0.077 | [7] 0.1 | [8] -0.026 | [9] 0.015 | [10] 0.067 | Nexturastat A -0.221 | vemurafenib -0.056 | [11] 0.043 | [12] -0.054 | givinostat 0.036 | barasertib 0.036

SEC11A isoform 3 (UniProt P67812)
inactive: IRAK-1-4 Inhibitor I -0.001 | ibrutinib -0.046 | [1] -0.01 | ralimetinib -0.002 | [2] -0.011 | [3] -0.044 | [4] -0.026 | pinometostat 0.01 | [5] -0.014 | [6] 0.009 | [7] 0.011 | [8] -0.016 | [9] -0.05 | [10] -0.012 | Nexturastat A 0.006 | vemurafenib -0.038 | [11] -0.013 | [12] -0.001 | givinostat -0.01 | barasertib 0.024

SEC22B (UniProt O75396)
inactive: IRAK-1-4 Inhibitor I 0.007 | ibrutinib -0.038 | [1] -0.004 | ralimetinib 0.024 | [2] 0.027 | [3] 0.009 | [4] -0.054 | pinometostat -0.05 | [5] -0.052 | [6] 0.031 | [7] 0.04 | [8] -0.007 | [9] -0.004 | [10] 0.025 | Nexturastat A -0.096 | vemurafenib 0.127 | [11] 0.028 | [12] 0.052 | givinostat 0.004 | barasertib 0.007

SAMM50 (UniProt Q9Y512)
inactive: IRAK-1-4 Inhibitor I 0 | ibrutinib 0.02 | [1] 0.062 | ralimetinib -0.016 | [2] 0.065 | [3] -0.007 | [4] -0.019 | pinometostat -0.041 | [5] 0.012 | [6] -0.009 | [7] -0.019 | [8] 0.016 | [9] -0.009 | [10] 0.013 | Nexturastat A -0.055 | vemurafenib -0.012 | [11] -0.041 | [12] 0.011 | givinostat -0.029 | barasertib 0.002

RTCA (UniProt O00442)
inactive: IRAK-1-4 Inhibitor I 0.013 | ibrutinib 0.034 | [1] -0.032 | ralimetinib -0.039 | [2] -0.106 | [3] -0.054 | [4] -0.014 | pinometostat -0.002 | [5] 0.058 | [6] 0.061 | [7] -0.017 | [8] -0.004 | [9] 0.005 | [10] 0.015 | Nexturastat A 0 | vemurafenib -0.011 | [11] 0.02 | [12] -0.007 | givinostat 0.022 | barasertib 0.037

SAMHD1 (UniProt Q9Y3Z3)
inactive: IRAK-1-4 Inhibitor I 0.003 | ibrutinib 0.001 | [1] -0.049 | ralimetinib -0.032 | [2] -0.015 | [3] -0.035 | [4] 0.021 | pinometostat -0.006 | [5] 0.05 | [6] 0.091 | [7] -0.079 | [8] 0.018 | [9] -0.013 | [10] 0.002 | Nexturastat A 0.009 | vemurafenib -0.018 | [11] -0.028 | [12] -0.032 | givinostat 0.05 | barasertib 0.009
